Results of single-concentration screens

Sequences of proteins named here, by UniProt entry; tags and fusion partners are left off. Residues count along the entry.
UniProt P9WFT3, whole entry: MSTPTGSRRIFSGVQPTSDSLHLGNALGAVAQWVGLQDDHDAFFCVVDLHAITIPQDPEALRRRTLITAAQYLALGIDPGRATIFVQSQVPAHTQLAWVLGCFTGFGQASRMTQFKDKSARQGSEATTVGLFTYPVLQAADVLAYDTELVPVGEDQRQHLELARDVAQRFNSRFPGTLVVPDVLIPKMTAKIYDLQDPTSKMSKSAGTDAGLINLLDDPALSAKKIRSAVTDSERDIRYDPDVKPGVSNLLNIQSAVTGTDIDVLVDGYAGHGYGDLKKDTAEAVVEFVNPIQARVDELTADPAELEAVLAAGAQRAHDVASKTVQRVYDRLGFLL
UniProt P9WPC5, whole entry: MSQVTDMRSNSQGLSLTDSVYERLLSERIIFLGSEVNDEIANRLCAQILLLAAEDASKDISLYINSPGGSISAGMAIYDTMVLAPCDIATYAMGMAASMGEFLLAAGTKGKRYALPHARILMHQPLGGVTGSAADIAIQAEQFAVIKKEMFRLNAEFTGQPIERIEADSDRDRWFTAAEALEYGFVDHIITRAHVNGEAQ
UniProt P9WPC3, whole entry partner: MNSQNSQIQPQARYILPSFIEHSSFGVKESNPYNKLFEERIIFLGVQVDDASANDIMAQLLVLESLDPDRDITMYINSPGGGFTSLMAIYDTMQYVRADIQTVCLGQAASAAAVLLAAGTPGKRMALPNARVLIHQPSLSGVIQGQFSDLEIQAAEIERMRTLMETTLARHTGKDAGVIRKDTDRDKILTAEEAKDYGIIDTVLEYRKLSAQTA
UniProt Q8IDJ8, 1-583: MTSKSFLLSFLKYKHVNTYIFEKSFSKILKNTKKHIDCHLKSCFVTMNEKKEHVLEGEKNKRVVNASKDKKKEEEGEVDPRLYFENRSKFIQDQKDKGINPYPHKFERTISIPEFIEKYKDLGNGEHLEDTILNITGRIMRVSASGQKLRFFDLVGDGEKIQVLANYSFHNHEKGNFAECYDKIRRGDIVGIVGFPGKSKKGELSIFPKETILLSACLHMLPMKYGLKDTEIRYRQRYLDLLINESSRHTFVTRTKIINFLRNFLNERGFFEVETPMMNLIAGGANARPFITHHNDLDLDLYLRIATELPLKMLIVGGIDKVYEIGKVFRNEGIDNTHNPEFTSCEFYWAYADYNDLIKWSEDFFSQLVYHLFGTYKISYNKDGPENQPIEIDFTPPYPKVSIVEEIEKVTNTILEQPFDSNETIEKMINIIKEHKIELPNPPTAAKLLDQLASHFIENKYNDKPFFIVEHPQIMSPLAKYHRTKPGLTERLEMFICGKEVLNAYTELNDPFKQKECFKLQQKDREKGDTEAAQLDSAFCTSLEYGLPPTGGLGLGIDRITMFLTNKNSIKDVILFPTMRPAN
UniProt P9WNZ1, whole entry: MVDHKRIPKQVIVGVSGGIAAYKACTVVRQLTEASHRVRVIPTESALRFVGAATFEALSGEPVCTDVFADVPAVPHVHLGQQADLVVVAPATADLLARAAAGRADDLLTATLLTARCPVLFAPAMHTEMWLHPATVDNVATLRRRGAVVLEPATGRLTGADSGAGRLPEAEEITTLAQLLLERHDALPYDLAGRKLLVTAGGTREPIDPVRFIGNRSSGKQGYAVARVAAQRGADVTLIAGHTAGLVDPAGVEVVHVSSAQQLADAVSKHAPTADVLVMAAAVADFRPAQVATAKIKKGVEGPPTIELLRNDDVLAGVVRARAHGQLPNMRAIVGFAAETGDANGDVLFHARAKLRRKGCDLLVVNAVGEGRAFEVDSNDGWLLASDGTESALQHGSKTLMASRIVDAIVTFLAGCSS

MtTrpRS: 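Enzyme assay of tryptophanyl-tRNA synthetase; the read-out is not stated. Target: Tryptophan-tRNA ligase, Mycobacterium tuberculosis (UniProt P9WFT3). Concentration: 10 µM. Higher most likely means stronger inhibition; the record gives no direction and few retests gave an IC50. Of about 65,000 compounds tested this way, about 64 (0.098%) reached 50% or more in at least one test.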
ClpP1P2: 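ClpP1P2, Mycobacterium tuberculosis (UniProt P9WPC5 and UniProt P9WPC3). Protease assay of ClpP1P2, read by the AMC dye that it sets free. Concentration: 50 µM. Higher reads as stronger inhibition, judged from the few compounds that gave an IC50. Most other retested compounds had strongly negative values. About 69,000 compounds were tested under these conditions; 0.015% (about 10) showed 50% or more at least once.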
Leishmania in macrophages: 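Cell assay of Leishmania donovani living inside macrophages; the read-out is not stated. Tested at 30 µM. The record gives no direction; compounds that gave an IC50 in retests scored well above the rest, so higher reads as stronger inhibition. Of about 69,000 compounds tested this way, about 1,000 (1.5%) reached 50% or more in at least one test.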
PfKRS1: 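Enzyme assay of the cytosolic lysyl-tRNA synthetase in 384-well plates, read by luminescence. Target: Lysine-tRNA ligase, Plasmodium falciparum 3D7 (UniProt Q8IDJ8). Tested at 30 µM. Direction is inferred from only a few compounds that gave an IC50; most scored high, so higher reads as stronger inhibition. Size under these conditions: about 69,000 compounds, about 49 of them at 50% or above in at least one test.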
CoaBC: 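Coenzyme A biosynthesis protein CoaBC, Mycobacterium tuberculosis (UniProt P9WNZ1). Enzyme assay of CoaBC with a phosphate dye (Biomol Green) read at 650 nm. Tested at 30 µM. Direction is inferred from only a few compounds that gave an IC50; most scored high, so higher reads as stronger inhibition. Most strong results did not repeat in a second test. About 67,000 compounds were tested under these conditions; 0.06% (about 40) showed 50% or more at least once.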

Each number is a percent effect as filed.
How 0% and 100% were set is not recorded. Most values in the screen are low, and negative values occur.
Compounds were drawn at random from those tested, without regard to their results.
Two or more numbers in one place are separate tests of the same structure; such repeats can differ widely.

* CC(=O)c1ccc(-n2c(C)cn(CCS(C)(=O)=O)c2=O)cc1 : MtTrpRS: 4.976%; ClpP1P2: -12.97%; Leishmania in macrophages: 22.31% & 22.06%; PfKRS1: 7.92%; CoaBC: 1.266%
* O=C(NCc1csc(-c2cnccn2)n1)c1cnn2c1CCCC2 : MtTrpRS: -0.6571%; ClpP1P2: -22.94%; Leishmania in macrophages: 35.65%; PfKRS1: 4.685%; CoaBC: 1.901%
* CC(=O)Nc1ccc(Oc2cccc(CN3CCCC3)c2)cc1 : MtTrpRS: -4.932%; ClpP1P2: 8.852%; Leishmania in macrophages: 0.5772%; PfKRS1: 8.292%; CoaBC: 10.58% & 65.7%
* O=C(NC1CC1)c1cc(C(F)(F)F)cc(C(F)(F)F)n1 : MtTrpRS: -6.004%; ClpP1P2: -5.422%; Leishmania in macrophages: 4.535%; PfKRS1: -0.8052%; CoaBC: -2.071%
* O=C(O)C(F)(F)F.[H][C@@]12CN(C(=O)c3occc3C)C[C@@]1([H])N(Cc1cccnc1)C(=O)CO2 : Leishmania in macrophages: -8.36%
* CNc1nc(CNC(=O)Nc2ccc(OC)cc2C)cs1 : MtTrpRS: -4.156%; ClpP1P2: 4.248%; Leishmania in macrophages: 5.181%; PfKRS1: 0.2063%; CoaBC: 6.198%
* Cc1cnc(C)c(N2C[C@H]3OC(=O)N(C4CCCC4)[C@H]3C2)n1 : MtTrpRS: -1.909%; ClpP1P2: -8.128%; PfKRS1: 2.269%; CoaBC: 1.818%
* CN(C)C(=O)COCc1nn(C)c2c1CCN(Cc1ccco1)C2.O=C(O)C(F)(F)F : Leishmania in macrophages: 23.44%
* COCCN1C(=O)CC[C@]12CC[C@@H](NCc1nccs1)CC2 : MtTrpRS: 0.3524%; ClpP1P2: 4.768%; PfKRS1: 3.136%; CoaBC: 2.326%
* CC(C)N1CCCCC1CCn1cnc2cc(C(F)(F)F)ccc2c1=O (stereo not drawn) : MtTrpRS: 0.1608%; ClpP1P2: -10.38%; Leishmania in macrophages: 28.75%; PfKRS1: 5.887%; CoaBC: 0.3645%
* COc1cc(I)c(Cl)cc1C(=O)N(C)CC(C)(C)O : MtTrpRS: 2.386%; ClpP1P2: -7.584%; Leishmania in macrophages: 7.07% & 16.59%; PfKRS1: -2.689%; CoaBC: -1.266%
* O=C(NC1CCCC1)NC1CCC(C(=O)N2CCSCC2)CC1 (stereo not drawn) : MtTrpRS: -2.568%; ClpP1P2: -19.18%; Leishmania in macrophages: 13.04%; PfKRS1: 3.589%; CoaBC: -2.273%
* CC(CNC(=O)CCn1cncn1)N1CCc2ccccc21 (stereo not drawn) : MtTrpRS: 2.77%; ClpP1P2: 0.2308%; Leishmania in macrophages: 16.13%; PfKRS1: 6.334%; CoaBC: -1.789%
* Cc1n[nH]c(C2CN(Cc3csc(C4CC4)n3)CCO2)n1 (stereo not drawn) : MtTrpRS: -4.161%; ClpP1P2: -2.926%; Leishmania in macrophages: -27.96%; PfKRS1: 1.846%; CoaBC: -1.033%
* CCOCc1cncc2c1CCN(C(=O)c1cscn1)C2.O=C(O)C(F)(F)F : Leishmania in macrophages: 5.62%
* COc1cc(C)c(NC(=O)NCCn2cccc2)cc1OC : MtTrpRS: 8.518%; ClpP1P2: 1.616%; Leishmania in macrophages: -15.77%; PfKRS1: -2.663%; CoaBC: 9.611%
* O=C([C@H]1COC[C@H]2CN(C3CCCC3)C[C@H]21)N1CCCO1 : MtTrpRS: 4.926%; ClpP1P2: -10.61%; PfKRS1: -1.375%; CoaBC: -6.452%
* Cc1cnn(C2CN(Cc3noc(C4CC4)n3)C2)c1 : MtTrpRS: -2.601%; ClpP1P2: 10.21%; Leishmania in macrophages: -20.25%; PfKRS1: 7.19%; CoaBC: 11.78%
* O=C(NCCc1nnc2n1CCC2)NC1(c2cccc(F)c2)CC1 : MtTrpRS: -1.377%; ClpP1P2: 5.961%; Leishmania in macrophages: -1.773%; PfKRS1: 2.89%; CoaBC: -2.564%

The first 2 entries again:

structure	MtTrpRS	ClpP1P2	Leishmania in macrophages	PfKRS1	CoaBC
CC(=O)c1ccc(-n2c(C)cn(CCS(C)(=O)=O)c2=O)cc1	4.976%	-12.97%	22.31% & 22.06%	7.92%	1.266%
O=C(NCc1csc(-c2cnccn2)n1)c1cnn2c1CCCC2	-0.6571%	-22.94%	35.65%	4.685%	1.901%

The values are deposited in ChEMBL (CHEMBL3988442, “University of Dundee, Small-Polar-MMV Screening Library” (2021)).